Data on 1 compound can be found in patent EP0657455A1, “Epi-epibatidine derivatives, a process and intermediates for preparing them and epi-epibatidine and medicaments containing the epi-epibatidine derivatives and/or epi-epibatidine and the use of them” (priority 1993, dated 1995).

The structures appear in SMILES notation.

The test has as its system NMRI male mice. The test is described as follows: Hot plate test in mice. The following applies: mouse, in vivo, sc. The procedure: Hot plate test in mice Method
A modification of method of Eddy et al. (1953) Eddy, N. B., Leimback D.: Synthetic analgesics II. Dithienylbutenyl and dithienylbutylamines. J. Pharmacol. Exp. Ther. 107 /1953/, 385 to 393 was used. NMRI male mice (20 to 25 g body weight) were dropped on a hot plate (56.0 ± 0.5°C) and the latency time elapsed until licking the forepaws was measured. The compounds were administered subcutaneously and 15, 30, 45 and 60 minutes later the reaction time was measured again. Animals were regarded as positive if they produced at least twice 2.5-fold reaction time extension as related to their control values.
Background: Thermal pain tests record how soon the animal reacts.

In turn, `CN1CC[C@]23c4c5ccc(O)c4O[C@H]2[C@@H](O)C=C[C@H]3[C@H]1C5.Cl` [Reference substance A, Morphine-HCl] displayed an ED50 of 2.7 mg/kg s.c.
